Test results as given in article PMC6986439, “Sultiame pharmacokinetic profile in plasma and erythrocytes after single oral doses: A pilot study in healthy volunteers” (Pharmacology Research & Perspectives, 2020).

Tested on: erythrocytes
Assay: In vitro competition studies with zonisamide and topiramate in whole blood
Format: in vitro ADME, human
Conditions: for capacity to displace sultiame from its erythrocyte binding sites: added at equimolar concentration to 20 mg/L of sultiame
Protocol: In addition, competition studies were performed with two other antiepileptic agents known for their affinity for CA (zonisamide and topiramate), added at equimolar concentration to 20 mg/L of sultiame. Similar ranges of inhibition constants for CA II were reported in the literature for these three substances.13 Samples (1 mL) were drawn before and at 2, 4, 6, 8, 10, 15, 20, 30, 45, 60, and 120 min after addition of the competitor. Sultiame, zonisamide, and topiramate concentrations were then analyzed. All samples were centrifuged at 18 620 g for 1 minutes at 4°C. Plasma, erythrocyte, and urine fractions were stored separately at − 80°C prior to analysis for a maximum of 9 months. For analysis, plasma and hemolyzed erythrocytes samples were subjected to protein precipitation with MeOH containing the internal‐standard sultiame D4 and quantified with the previously described HPLC‐MS/MS method, using matrix‐matched calibration and quality controls. The sultiame concentrations determined in erythrocytes were corrected for the 10% interstitial plasma remnant in the erythrocyte fraction after centrifugation.14

| Compound | capacity to displace sultiame from its erythrocyte binding sites | effect of adding sultiame to a sample enriched with the competitor (translating into an increase in plasma level) |
| --- | --- | --- |
| CC1(C)O[C@@H]2[C@@H](CO[C@@]3(COS(N)(=O)=O)OC(C)(C)O[C@@H]23)O1 [topiramate] | limited capacity | – |
| NS(=O)(=O)Cc1noc2ccccc12 [zonisamide] | limited capacity | clear efflux of zonisamide from erythrocytes |
